PubChem BioAssay AID493246, Drosophila RNAi Screening Center | 2011

Screen: 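Genes fly cells need to grow and stay alive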 (primary screen)
System: Drosophila Kc and S2R+ cells
Reagents: long dsRNA against Drosophila genes
Detection: 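Cell number per well after knock-down, printed as raw plate values; calls were based on per-plate z-scores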
Direction: Kc cell number and S2R+ cell number: higher = more cells remaining
Active means: 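Counted as a hit if cell number falls by a z-score of at least 3 within its plate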
The screen tested about 21,000 reagents; this is a random part of those with a known target gene and a result. Of all reagents, 429 (2%) were called active. 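Values are raw and not normalised between plates; calls rest on per-plate z-scores that were not deposited.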 Unmarked entries are inactive. Names joined by + are all predicted targets of the reagent. Not stated in the record: the amount of reagent, the time to read-out.

Target gene | amplicon | Kc cell number, rep 1 | Kc cell number, rep 2 | S2R+ cell number, rep 1 | S2R+ cell number, rep 2
RhoGEF64C | DRSC08318 | 1.38e6 | 1.49e6 | 1.37e6 | 1.29e6
RhoGEF64C | DRSC08319 | 1.57e6 | 1.48e6 | 1.03e6 | 1.11e6
Miox | DRSC10747 | 1.30e6 | 1.36e6 | 1.26e6 | 1.35e6
CG3270 | DRSC04988 | 1.34e6 | 1.38e6 | 1.19e6 | 1.25e6
CG17271 | DRSC15210 | 1.26e6 | 1.20e6 | 1.07e6 | 1.19e6
TotF | DRSC02305 | 1.57e6 | 1.63e6 | 1.31e6 | 2.65e5
CG13326 | DRSC06363 | 1.30e6 | 1.41e6 | 1.03e6 | 1.06e6
Pex14 | DRSC11754 | 1.47e6 | 1.63e6 | 1.37e6 | 1.43e6
TORIP | DRSC10104 | 1.45e6 | 1.52e6 | 1.17e6 | 1.21e6
CG6688 | DRSC16094 | 1.43e6 | 1.53e6 | 9.78e5 | 1.10e6
lcs | DRSC20580 | 1.56e6 | 1.46e6 | 1.04e6 | 1.14e6
Cdc14 | DRSC03013 | 1.61e6 | 1.61e6 | 1.14e6 | 1.26e6
Roe1 | DRSC07534 | 1.45e6 | 1.48e6 | 1.10e6 | 1.10e6
CG8209 | DRSC10970 | 1.36e6 | 1.30e6 | 1.18e6 | 1.23e6
prod | DRSC07667 | 1.34e6 | 1.36e6 | 1.17e6 | 1.19e6
mEFTs | DRSC02953 | 1.20e6 | 1.37e6 | 1.17e6 | 1.16e6
Hn | DRSC11184 | 1.40e6 | 1.54e6 | 1.32e6 | 1.26e6
dysc | DRSC10273 | 1.34e6 | 1.36e6 | 9.81e5 | 1.13e6
dysc | DRSC11040 | 1.70e6 | 1.81e6 | 1.29e6 | 1.38e6
beat-Vb | DRSC12940 | 1.78e6 | 1.88e6 | 1.14e6 | 1.32e6
beat-Vb | DRSC14845 | 1.85e6 | 1.85e6 | 1.21e6 | 1.42e6
CG40378 (retired record) | DRSC20958 | 1.53e6 | 1.78e6 | 1.18e6 | 1.23e6
Rad1 + Sws1 | DRSC00778 | 1.80e6 | 1.80e6 | 1.15e6 | 1.28e6
ranshi | DRSC16564 | 1.41e6 | 1.44e6 | 1.31e6 | 1.38e6
CG8952 | DRSC20133 | 6.04e5 | – | 9.44e5 | –
CG6788 | DRSC20007 | 1.48e6 | 1.65e6 | 1.06e6 | 1.12e6
sau | DRSC00694 | 1.11e6 | 1.35e6 | 3.36e5 | 3.87e5
jef | DRSC06198 | 1.75e6 | 1.92e6 | 1.47e6 | 1.60e6
amd | DRSC02608 | 1.62e6 | 1.70e6 | 1.23e6 | 3.01e5
amd | DRSC03483 | 1.49e6 | 1.53e6 | 1.21e6 | 3.49e5
CG30110 | DRSC05686 | 5.53e5 | – | 8.20e5 | –
mRpS18A | DRSC14369 | 1.31e6 | 1.43e6 | 1.06e6 | 1.11e6
CG8507 | DRSC16435 | 1.48e6 | 1.60e6 | 1.36e6 | 1.46e6
CG10365 | DRSC14234 | 1.57e6 | 1.56e6 | 9.72e5 | 1.08e6
RpS7 | DRSC15394 | 9.31e5 (active) | 9.89e5 | 7.32e5 | 8.35e5
CG9130 + CG9133 | DRSC08624 | 1.69e6 | 1.67e6 | 1.20e6 | 1.31e6
CG9130 + CG9133 | DRSC08625 | 1.36e6 | 1.45e6 | 1.04e6 | 1.08e6
CG13058 | DRSC09941 | 1.57e6 | 1.59e6 | 1.21e6 | 1.33e6
DUBAI | DRSC07281 | 1.28e6 | 1.32e6 | 1.12e6 | 1.16e6
Ugt37A2 | DRSC15861 | 1.95e6 | 2.00e6 | 1.33e6 | 1.31e6
RhoL | DRSC16824 | 1.44e6 | 1.52e6 | 1.20e6 | 1.30e6
Dmtn | DRSC12513 | 1.62e6 | 1.66e6 | 1.23e6 | 1.29e6
Nrx-1 | DRSC16184 | 1.47e6 | 1.60e6 | 1.12e6 | 1.16e6
CG32248 | DRSC08102 | 1.58e6 | 1.61e6 | 1.08e6 | 1.29e6
Tom20 | DRSC10899 | 1.55e6 | 1.58e6 | 1.21e6 | 1.22e6
SrpRalpha | DRSC20251 | 5.94e5 | – | 7.71e5 | –
l(3)76BDm | DRSC11047 | 1.48e6 | 1.47e6 | 1.31e6 | 1.28e6
Prosalpha6 | DRSC03401 | 1.08e6 (active) | 1.16e6 | 7.02e5 | 7.91e5
Lamtor1 | DRSC10183 | 1.32e6 | 1.40e6 | 1.36e6 | 1.38e6
CG15337 | DRSC18020 | 1.59e6 | 1.59e6 | 1.01e6 | 1.16e6
Sf3b3 | DRSC08370 | 9.66e5 | 1.16e6 | 6.84e5 | 6.98e5
CG12817 | DRSC14555 | 1.45e6 | 1.49e6 | 1.27e6 | 1.35e6
Cpr65Ax2 + Cpr65Ax1 | DRSC10341 | 1.50e6 | 1.31e6 | 1.10e6 | 1.20e6
Cpr65Ax2 + Cpr65Ax1 | DRSC10344 | 1.46e6 | 1.33e6 | 1.15e6 | 1.19e6
ham | DRSC02070 | 1.57e6 | 1.70e6 | 1.20e6 | 3.30e5
ham | DRSC02512 | 1.61e6 | 1.69e6 | 1.30e6 | 3.01e5
ham | DRSC02513 | 1.53e6 | 1.61e6 | 1.27e6 | 3.14e5
CG13946 | DRSC00364 | 1.73e6 | 1.74e6 | 1.09e6 | 1.23e6
CG1571 | DRSC18068 | 1.72e6 | 1.70e6 | 1.10e6 | 1.22e6

5 entries from above, ordered by “Kc cell number, rep 2”, high to low:
Target gene | amplicon | Kc cell number, rep 1 | Kc cell number, rep 2 | S2R+ cell number, rep 1 | S2R+ cell number, rep 2
TotF | DRSC02305 | 1.57e6 | 1.63e6 | 1.31e6 | 2.65e5
Pex14 | DRSC11754 | 1.47e6 | 1.63e6 | 1.37e6 | 1.43e6
CG13326 | DRSC06363 | 1.30e6 | 1.41e6 | 1.03e6 | 1.06e6
CG3270 | DRSC04988 | 1.34e6 | 1.38e6 | 1.19e6 | 1.25e6
CG17271 | DRSC15210 | 1.26e6 | 1.20e6 | 1.07e6 | 1.19e6
